# Values are raw readings; no control value is given beside them.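 Each value averages three technical replicates run on separate plates. Reagent-free control wells on every plate corrected for the cells' own fluorescence, and DMSO-treated wells served as vehicle controls. No active or hit threshold is defined for these live-cell readings.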
# Assays:
# U-2 OS [1] = test: AUC of caspase 3/7-positive object count (AUC (object count x time)); higher = more apoptotic or dead cells
# Protocol: (§1)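 Live-cell Incucyte imaging of U-2 OS cells with Caspase-3/7 Green and Cytotox Red reagents. Compounds were tested mostly at 5, 10 and 20 uM, and cells were imaged every 4 h for up to 60 h. Value is the area under the curve of positive object counts over time, per channel: green = caspase 3/7, red = membrane-compromised, overlap = both.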
# U-2 OS [2] = test: AUC of Cytotox red (membrane-compromised) object count (AUC (object count x time)); higher = more apoptotic or dead cells
# Protocol: as §1
Compound,AUC of caspase 3/7-positive object count (U-2 OS [1]; 5 µM),AUC of caspase 3/7-positive object count (U-2 OS [1]; 10 µM),AUC of caspase 3/7-positive object count (U-2 OS [1]; 20 µM),AUC of Cytotox red (U-2 OS [2]; 5 µM),AUC of Cytotox red (U-2 OS [2]; 10 µM),AUC of Cytotox red (U-2 OS [2]; 20 µM),AUC of caspase 3/7-positive object count (U-2 OS [1]; 0.625 µM),AUC of caspase 3/7-positive object count (U-2 OS [1]; 1.25 µM),AUC of caspase 3/7-positive object count (U-2 OS [1]; 2.5 µM),AUC of Cytotox red (U-2 OS [2]; 0.625 µM),AUC of Cytotox red (U-2 OS [2]; 1.25 µM),AUC of Cytotox red (U-2 OS [2]; 2.5 µM),AUC of caspase 3/7-positive object count (U-2 OS [1]; 40 µM),AUC of caspase 3/7-positive object count (U-2 OS [1]; 80 µM),AUC of Cytotox red (U-2 OS [2]; 40 µM),AUC of Cytotox red (U-2 OS [2]; 80 µM)
CC(=O)N[C@@H](CCCCNC(=O)CSCCNC(=O)CCNC(=O)[C@H](O)C(C)(C)COP(=O)(O)OP(=O)(O)OC[C@H]1O[C@@H](n2cnc3c(N)ncnc32)[C@H](O)[C@@H]1OP(=O)(O)O)C(N)=O.O=C(O)C(F)(F)F,33.9,56.4,48.2,47.2,65.3,61.3,–,–,–,–,–,–,–,–,–,–
O.O=P1(N(CCCl)CCCl)NCCCO1 (stereo unspecified),23.2,24.4,21,52.6,51.7,42.7,–,–,–,–,–,–,–,–,–,–
C=CC(=O)Nc1ccc(CN2C(=O)N(c3cc(OC)cc(OC)c3)Cc3cnc(Nc4ccc(N5CCN(C)CC5)cc4)nc32)cc1,51.9,88.4,203,26.8,58.8,63.9,–,–,–,–,–,–,–,–,–,–
NC(=O)c1ccc(I)c([N+](=O)[O-])c1,74.2,75.9,50.6,49,54.5,37,–,–,–,–,–,–,–,–,–,–
CCOC(=O)C1=C(C)NC(=S)N[C@@H]1c1cccc(O)c1,69,53.5,121,53.5,48.5,34.4,–,–,–,–,–,–,–,–,–,–
C[C@@H]1C[C@H]2O[C@@H]2/C=C\C=C\C(=O)Cc2c(Cl)c(O)cc(O)c2C(=O)O1,414,353,57.4,288,299,83.8,58.5,42,31,59.4,48.7,40.4,–,–,–,–
O=C(O[C@@H]1O[C@@H]2COC(=O)c3cc(O)c(O)c(O)c3-c3c(cc(O)c(O)c3O)C(=O)O[C@H]([C@H]1O)[C@@H]2O)c1cc(O)c(O)c(O)c1,20.1,12.4,17.2,0.289,4,0.0807,–,–,–,–,–,–,–,–,–,–
O=C(OCC)/C(C(OCC)=O)=C\CCCCCCCCCCCCCC,57.1,67.5,60.1,35.7,37.6,25.1,–,–,–,–,–,–,36,56.7,23.8,49
CN1CCN(CCOc2cc(OC3CCOCC3)c3c(Nc4c(Cl)ccc5c4OCO5)ncnc3c2)CC1,213,238,256,118,137,181,–,–,–,–,–,–,–,–,–,–
CC[C@]1(O)C[C@@H]2CN(CCc3c([nH]c4ccccc34)[C@@](C(=O)OC)(c3cc4c(cc3OC)N(C)[C@H]3[C@@](O)(C(=O)OC)[C@H](OC(C)=O)[C@]5(CC)C=CCN6CC[C@]43[C@@H]65)C2)C1,585,569,642,481,534,686,–,–,–,–,–,–,–,–,–,–
CCN(CC)Cc1ccc2cc(COC(=O)Nc3ccc(C(=O)NO)cc3)ccc2c1.Cl,846,1130,1060,897,1170,1290,–,–,–,–,–,–,–,–,–,–
CS(=O)(=O)OCCCCOS(C)(=O)=O,32.6,24.6,47.8,52.4,51.1,72.7,–,–,–,–,–,–,–,–,–,–
CCCCCC[C@H]1C(=O)O[C@H](C)[C@H](NC(=O)c2cccc(NC=O)c2O)C(=O)O[C@@H](C)[C@@H]1OC(=O)CC(C)C,23.7,28.8,51.3,43.9,48,60.9,–,–,–,–,–,–,–,–,–,–
CCC(=O)N1CCN(c2ccc(-n3c(=O)ccc4cnc5ccc(-c6cnc7ccccc7c6)cc5c43)cc2C(F)(F)F)CC1,99.2,81,156,53,44.9,84.1,–,–,–,–,–,–,–,–,–,–
Cc1cc2c(C(C)C)c(O)c(O)c(C=O)c2c(O)c1-c1c(C)cc2c(C(C)C)c(O)c(O)c(C=O)c2c1O,31.2,57.8,157,17.7,31.6,79.5,–,–,–,–,–,–,777,622,594,593
O=C1C(NCCN2CCOCC2)=C(Cl)C(=O)c2ncccc21,682,654,714,1060,1100,810,–,–,–,–,–,–,–,–,–,–
Nc1nccc2c1ncn2[C@@H]1C=C(CO)[C@@H](O)[C@H]1O,68.3,53.6,79.7,42.7,37.3,81.8,–,–,–,–,–,–,–,–,–,–
CC[C@H](C)[C@@H]1NC(=O)CNC(=O)[C@@H]2Cc3c([nH]c4cc(O)ccc34)S(=O)C[C@H](NC(=O)CNC1=O)C(=O)N[C@@H](CC(=O)O)C(=O)N1C[C@H](O)C[C@H]1C(=O)N[C@@H]([C@@H](C)[C@@H](O)CO)C(=O)N2 (stereo partly specified),407,504,444,307,408,437,–,–,–,–,–,–,–,–,–,–
O=C(O)CSc1cc(NS(=O)(=O)c2ccc(Br)cc2)c2ccccc2c1O,49,77.9,802,48.5,49.8,566,–,–,–,–,–,–,–,–,–,–
COC1=C2C[C@@H](C)C[C@H](OC)[C@H](O)[C@@H](C)/C=C(\C)[C@H](OC(N)=O)[C@@H](OC)/C=C\C=C(/C)C(=O)NC(=CC1=O)C2=O,589,599,613,363,270,181,–,–,–,–,–,–,–,–,–,–
CCCCc1c(-c2ccc(OC)cc2)[nH]c2nccnc12,80,67.6,132,62.1,76.9,483,–,–,–,–,–,–,–,–,–,–
COc1ccc(/C=C/C(=O)O[C@@H]2[C@H](O[C@@H]3O[C@@H](C)[C@H](O)[C@@H](O)[C@H]3O)[C@@H](O[C@@H]3O[C@@H](C)[C@H](O[C@@H]4OC[C@@H](O[C@@H]5O[C@H](CO)[C@H](O)[C@H](O)[C@H]5O)[C@H](O)[C@H]4O)[C@@H](O)[C@H]3O)[C@H](OC(=O)[C@]34CCC(C)(C)C[C@H]3C3=CC[C@@H]5[C@@]6(C)C[C@H](O)[C@H](O[C@@H]7O[C@H](CO)[C@@H](O)[C@H](O)[C@H]7O)[C@@](C)(C(=O)O)[C@@H]6CC[C@@]5(C)[C@]3(CO)CC4)O[C@@H]2C)cc1,93,136,142,85.8,218,586,–,–,–,–,–,–,–,–,–,–

# Retrieved by compound from the entries so far (2):
Compound,AUC of caspase 3/7-positive object count (U-2 OS [1]; 5 µM),AUC of caspase 3/7-positive object count (U-2 OS [1]; 10 µM),AUC of caspase 3/7-positive object count (U-2 OS [1]; 20 µM),AUC of Cytotox red (U-2 OS [2]; 5 µM),AUC of Cytotox red (U-2 OS [2]; 10 µM),AUC of Cytotox red (U-2 OS [2]; 20 µM),AUC of caspase 3/7-positive object count (U-2 OS [1]; 0.625 µM),AUC of caspase 3/7-positive object count (U-2 OS [1]; 1.25 µM),AUC of caspase 3/7-positive object count (U-2 OS [1]; 2.5 µM),AUC of Cytotox red (U-2 OS [2]; 0.625 µM),AUC of Cytotox red (U-2 OS [2]; 1.25 µM),AUC of Cytotox red (U-2 OS [2]; 2.5 µM),AUC of caspase 3/7-positive object count (U-2 OS [1]; 40 µM),AUC of caspase 3/7-positive object count (U-2 OS [1]; 80 µM),AUC of Cytotox red (U-2 OS [2]; 40 µM),AUC of Cytotox red (U-2 OS [2]; 80 µM)
C=CC(=O)Nc1ccc(CN2C(=O)N(c3cc(OC)cc(OC)c3)Cc3cnc(Nc4ccc(N5CCN(C)CC5)cc4)nc32)cc1,51.9,88.4,203,26.8,58.8,63.9,–,–,–,–,–,–,–,–,–,–
CCN(CC)Cc1ccc2cc(COC(=O)Nc3ccc(C(=O)NO)cc3)ccc2c1.Cl,846,1130,1060,897,1170,1290,–,–,–,–,–,–,–,–,–,–

# From the supplement of paper PMC10011410
